In paper PMC9691343:
These are yes or no findings as the source states them, for the method shown. In cells and extracts the contact can be indirect. Some results given as binding are weak or reduced against the parent protein; the word gives no strength.

Protein sequences, listed by entry. Tags and fused reporters are not part of them.
UniProt Q91V83: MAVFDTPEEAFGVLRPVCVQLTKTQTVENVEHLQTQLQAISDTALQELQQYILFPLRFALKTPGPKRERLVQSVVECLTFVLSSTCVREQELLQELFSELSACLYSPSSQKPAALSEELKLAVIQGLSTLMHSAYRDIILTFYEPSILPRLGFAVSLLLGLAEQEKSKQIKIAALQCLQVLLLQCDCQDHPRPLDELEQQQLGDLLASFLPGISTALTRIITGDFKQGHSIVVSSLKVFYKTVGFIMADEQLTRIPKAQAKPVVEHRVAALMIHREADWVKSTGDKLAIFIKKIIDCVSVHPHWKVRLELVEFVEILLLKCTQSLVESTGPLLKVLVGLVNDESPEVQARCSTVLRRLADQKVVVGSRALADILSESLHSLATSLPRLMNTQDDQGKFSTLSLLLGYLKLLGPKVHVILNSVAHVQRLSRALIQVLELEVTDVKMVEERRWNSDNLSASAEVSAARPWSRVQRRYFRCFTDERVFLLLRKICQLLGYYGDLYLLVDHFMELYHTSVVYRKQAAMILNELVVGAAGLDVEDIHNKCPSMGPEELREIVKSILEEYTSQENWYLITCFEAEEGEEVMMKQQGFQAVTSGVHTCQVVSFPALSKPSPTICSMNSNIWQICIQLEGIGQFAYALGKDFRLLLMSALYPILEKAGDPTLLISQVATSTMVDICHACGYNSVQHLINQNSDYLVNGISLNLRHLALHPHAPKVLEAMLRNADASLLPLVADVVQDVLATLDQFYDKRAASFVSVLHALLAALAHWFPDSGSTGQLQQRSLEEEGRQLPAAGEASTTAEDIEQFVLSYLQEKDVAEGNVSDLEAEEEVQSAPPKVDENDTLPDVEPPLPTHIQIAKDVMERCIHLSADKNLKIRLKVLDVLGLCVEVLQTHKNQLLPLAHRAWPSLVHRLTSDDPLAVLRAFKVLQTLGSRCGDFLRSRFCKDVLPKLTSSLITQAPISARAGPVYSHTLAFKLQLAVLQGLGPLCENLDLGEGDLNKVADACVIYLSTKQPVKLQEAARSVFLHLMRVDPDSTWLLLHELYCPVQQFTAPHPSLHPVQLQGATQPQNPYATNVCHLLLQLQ
UniProt Q9DC40: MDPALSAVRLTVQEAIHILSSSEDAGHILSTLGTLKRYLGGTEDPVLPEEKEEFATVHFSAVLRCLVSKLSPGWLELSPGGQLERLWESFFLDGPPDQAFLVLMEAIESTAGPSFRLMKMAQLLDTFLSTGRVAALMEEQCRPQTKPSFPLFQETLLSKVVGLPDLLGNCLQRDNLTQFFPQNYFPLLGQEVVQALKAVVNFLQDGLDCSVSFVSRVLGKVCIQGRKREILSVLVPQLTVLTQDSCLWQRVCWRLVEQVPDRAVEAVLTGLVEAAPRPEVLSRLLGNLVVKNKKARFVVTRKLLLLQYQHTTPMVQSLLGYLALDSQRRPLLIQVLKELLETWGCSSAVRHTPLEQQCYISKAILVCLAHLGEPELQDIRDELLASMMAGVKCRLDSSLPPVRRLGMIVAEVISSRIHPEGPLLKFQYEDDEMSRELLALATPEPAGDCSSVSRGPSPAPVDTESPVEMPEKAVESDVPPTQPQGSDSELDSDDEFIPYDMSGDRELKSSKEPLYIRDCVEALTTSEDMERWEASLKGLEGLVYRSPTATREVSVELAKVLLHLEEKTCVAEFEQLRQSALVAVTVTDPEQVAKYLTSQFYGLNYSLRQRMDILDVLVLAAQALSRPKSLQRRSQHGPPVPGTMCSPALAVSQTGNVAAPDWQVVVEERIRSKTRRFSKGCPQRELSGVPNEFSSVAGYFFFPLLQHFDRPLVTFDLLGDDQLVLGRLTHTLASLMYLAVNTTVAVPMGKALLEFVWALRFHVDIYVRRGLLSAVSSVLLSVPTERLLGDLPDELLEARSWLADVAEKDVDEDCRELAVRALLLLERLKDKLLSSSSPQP

Assays:
[1] = target: Endogenous RUVBL1 of mouse liver tumors (mouse (endogenous in liver tumors)) (UniProt P60122); assay: co-IP; lysates of DEN-induced liver tumors from WT and Hpcal1-/- mice; Co-IP and immunoblot
[2] = target: Endogenous HPCAL1 of mouse liver tumors (mouse (endogenous in liver tumors)) (UniProt P62748); assay: co-IP; endogenous HPCAL1 from MYC-induced mouse liver tumors immunoprecipitated with anti-HPCAL1 antibody or isotype IgG control; immunoblot

Substance	binding [1]	binding [2]
Endogenous TTI1 of mouse liver tumors (from UniProt Q91V83 1-1085)	binds	–
Endogenous RUVBL1 of mouse liver tumors (from UniProt P60122 1-456)	–	binds
Endogenous TEL2 of mouse liver tumors (from UniProt Q9DC40 1-840)	binds	–
